Laboratory results as given in publication PMC10203884.

Chains of the proteins cited; added tags and fusions are not shown.
UniProt P46940: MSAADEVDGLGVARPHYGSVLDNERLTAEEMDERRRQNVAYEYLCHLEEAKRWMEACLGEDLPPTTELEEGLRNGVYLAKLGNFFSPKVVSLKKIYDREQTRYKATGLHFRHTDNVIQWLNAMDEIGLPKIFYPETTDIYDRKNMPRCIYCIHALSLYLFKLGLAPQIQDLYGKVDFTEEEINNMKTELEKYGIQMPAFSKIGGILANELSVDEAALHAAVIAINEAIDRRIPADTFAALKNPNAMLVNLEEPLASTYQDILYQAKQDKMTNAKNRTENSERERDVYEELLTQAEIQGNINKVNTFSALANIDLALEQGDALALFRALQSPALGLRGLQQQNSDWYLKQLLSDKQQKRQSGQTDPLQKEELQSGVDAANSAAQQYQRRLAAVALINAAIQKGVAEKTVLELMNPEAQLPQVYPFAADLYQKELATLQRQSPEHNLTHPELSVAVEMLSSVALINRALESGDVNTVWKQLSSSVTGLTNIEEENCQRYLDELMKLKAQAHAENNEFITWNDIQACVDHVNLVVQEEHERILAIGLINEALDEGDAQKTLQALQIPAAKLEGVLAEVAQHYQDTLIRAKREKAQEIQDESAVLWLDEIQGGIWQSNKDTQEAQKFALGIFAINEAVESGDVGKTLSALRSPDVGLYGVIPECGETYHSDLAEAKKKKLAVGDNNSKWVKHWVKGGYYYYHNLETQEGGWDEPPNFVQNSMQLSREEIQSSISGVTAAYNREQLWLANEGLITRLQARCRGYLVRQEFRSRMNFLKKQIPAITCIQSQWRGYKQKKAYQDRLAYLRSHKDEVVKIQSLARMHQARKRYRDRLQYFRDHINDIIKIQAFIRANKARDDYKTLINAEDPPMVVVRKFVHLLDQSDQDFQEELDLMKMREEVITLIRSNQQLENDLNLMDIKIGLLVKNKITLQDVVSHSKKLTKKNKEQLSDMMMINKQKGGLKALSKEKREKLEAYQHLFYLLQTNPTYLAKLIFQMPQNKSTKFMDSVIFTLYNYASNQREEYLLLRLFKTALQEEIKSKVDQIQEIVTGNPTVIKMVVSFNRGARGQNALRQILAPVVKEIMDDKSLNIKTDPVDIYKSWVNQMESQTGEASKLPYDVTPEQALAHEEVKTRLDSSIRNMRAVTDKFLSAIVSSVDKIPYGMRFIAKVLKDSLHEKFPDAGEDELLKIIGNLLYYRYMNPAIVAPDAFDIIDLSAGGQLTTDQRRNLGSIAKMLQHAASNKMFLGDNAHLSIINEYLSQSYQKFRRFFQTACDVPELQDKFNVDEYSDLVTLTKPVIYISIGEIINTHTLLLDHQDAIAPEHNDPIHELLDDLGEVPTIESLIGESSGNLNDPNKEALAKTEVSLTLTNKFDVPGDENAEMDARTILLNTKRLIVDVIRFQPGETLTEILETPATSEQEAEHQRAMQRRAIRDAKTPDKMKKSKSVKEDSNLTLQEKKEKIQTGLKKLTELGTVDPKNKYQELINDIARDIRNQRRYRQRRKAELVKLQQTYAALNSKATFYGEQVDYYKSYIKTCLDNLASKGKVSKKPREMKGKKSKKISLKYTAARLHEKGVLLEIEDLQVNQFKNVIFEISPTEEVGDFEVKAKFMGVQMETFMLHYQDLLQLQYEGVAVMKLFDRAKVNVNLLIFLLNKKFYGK
UniProt Q8TBZ5: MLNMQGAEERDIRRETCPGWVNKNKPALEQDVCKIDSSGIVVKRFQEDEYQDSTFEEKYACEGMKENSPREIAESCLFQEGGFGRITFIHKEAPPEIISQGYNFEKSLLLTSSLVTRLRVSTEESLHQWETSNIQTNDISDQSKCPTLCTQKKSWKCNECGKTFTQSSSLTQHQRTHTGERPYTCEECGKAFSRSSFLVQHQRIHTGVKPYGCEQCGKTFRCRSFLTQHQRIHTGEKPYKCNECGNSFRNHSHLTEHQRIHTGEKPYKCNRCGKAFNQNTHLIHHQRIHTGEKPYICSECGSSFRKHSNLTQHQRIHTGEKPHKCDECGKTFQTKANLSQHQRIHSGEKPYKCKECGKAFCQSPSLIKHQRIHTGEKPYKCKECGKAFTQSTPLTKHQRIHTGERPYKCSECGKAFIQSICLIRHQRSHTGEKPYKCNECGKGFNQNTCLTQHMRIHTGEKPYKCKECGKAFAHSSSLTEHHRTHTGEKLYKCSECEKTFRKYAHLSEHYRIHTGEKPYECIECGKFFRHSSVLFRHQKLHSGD

What was measured:
[1] = molecular target: IQ motif containing GTPase-activating protein 1 (IQGAP1) (human (endogenous in U87 and LN18)) (UniProt P46940); experiment: affinity purification with mass spectrometry; LN18 cells treated 48 h with 10 uM Haldol or DMSO; NP40 lysates immunoprecipitated with IQGAP1-specific monoclonal antibody (IgG as control), protein A beads, 4 C; SDS-PAGE, in-gel trypsin digest, MALDI-TOF, Mascot
[2] = molecular target: IQ motif containing GTPase-activating protein 1 (IQGAP1) (human (endogenous in U87 and LN18)) (UniProt P46940); experiment: affinity purification with mass spectrometry; U87 cells treated 48 h with 10 uM Haldol or DMSO; NP40 lysates immunoprecipitated with IQGAP1-specific monoclonal antibody (IgG as control), protein A beads, 4 C; SDS-PAGE, in-gel trypsin digest, MALDI-TOF, Mascot

Row | binding [1] | binding [2] | Molecule
1 | binds |  | Zinc finger protein 502 (ZN502) (from UniProt Q8TBZ5 1-544)
2 |  | binds | Retinol dehydrogenase 11 isoform 1 precursor (RDH11) (protein, UniProt Q8TC12-1 1-318) MVELMFPLLLLLLPFLLYMAAPQIRKMLSSGVCTSTVQLPGKVVVVTGANTGIGKETAKELAQRGARVYLACRDVEKGELVAKEIQTTTGNQQVLVRKLDLSDTKSIRAFAKGFLAEEKHLHVLINNAGVMMCPYSKTADGFEMHIGVNHLGHFLLTHLLLEKLKESAPSRIVNVSSLAHHLGRIHFHNLQGEKFYNAGLAYCHSKLANILFTQELARRLKGSGVTTYSVHPGTVQSELVRHSSFMRWMWWLFSFFIKTPQQGAQTSLHCALTEGLEILSGNHFSDCHVAWVSAQARNETIARRLWDVSCDLLGLPID

Results are given in words; binding and its absence hold for the method and conditions named. In cells and extracts the contact can be indirect. These calls come from enrichment with a bait or labelling near it, and not all partners need be listed.
